Results are given in words; binding and its absence hold for the method and conditions named. Binding seen in cells or lysates may run through a third protein. Some binding calls cover weakened binding; strength is not graded here. For part of these data: Tags and fused reporters may be left off the sequences shown.
How the values were obtained:
[1] = target: TRF2 (human (endogenous in patient and control cells)) (UniProt Q15554); assay: proximity ligation; Duolink in situ kit on fixed control and POT1 patient cells; PLA dots counted by confocal imaging in the DAPI-stained region
[2] = target: GFP-tagged POLA1 p.Arg616Gly (human) (UniProt P09884); assay: co-IP; GFP-TRAP agarose beads on lysates of 293T cells expressing GFP-tagged POLA1 (wild type or variant) together with MYC-CTC1, FLAG-STN1 and TEN1-HA; western blot of input and pull-down
[3] = target: GFP-tagged POLA1 p.Tyr1146Cys (human) (UniProt P09884); assay: as above
[4] = target: GFP-tagged POLA1 p.Leu537Ile (human) (UniProt P09884); assay: as above
[5] = target: GFP-tagged wild-type POLA1 (human) (UniProt P09884); assay: as above
[6] = target: GFP-tagged POLA1 p.P496S (common variant) (human) (UniProt P09884); assay: as above

Amino acid sequences for entries named in this document (tags omitted). A change or cut given only in a name is not applied to a line headed by its entry. Chains listed by the source or under a name are the forms on record and can include a tag or linker.
UniProt Q15554: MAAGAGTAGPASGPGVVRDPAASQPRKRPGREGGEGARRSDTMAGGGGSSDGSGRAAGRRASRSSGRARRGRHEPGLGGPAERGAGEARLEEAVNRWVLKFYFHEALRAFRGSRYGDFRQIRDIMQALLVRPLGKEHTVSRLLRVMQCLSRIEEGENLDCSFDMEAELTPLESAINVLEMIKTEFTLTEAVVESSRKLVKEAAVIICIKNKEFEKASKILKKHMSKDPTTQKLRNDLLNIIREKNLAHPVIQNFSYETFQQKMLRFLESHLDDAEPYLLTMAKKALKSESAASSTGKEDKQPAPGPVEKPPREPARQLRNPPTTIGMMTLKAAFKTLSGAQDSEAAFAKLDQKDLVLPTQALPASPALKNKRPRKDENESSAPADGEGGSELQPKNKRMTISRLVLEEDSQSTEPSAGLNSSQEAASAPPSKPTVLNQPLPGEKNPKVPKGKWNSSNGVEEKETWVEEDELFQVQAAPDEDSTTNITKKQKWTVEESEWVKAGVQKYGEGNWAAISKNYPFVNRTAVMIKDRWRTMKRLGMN
UniProt P09884: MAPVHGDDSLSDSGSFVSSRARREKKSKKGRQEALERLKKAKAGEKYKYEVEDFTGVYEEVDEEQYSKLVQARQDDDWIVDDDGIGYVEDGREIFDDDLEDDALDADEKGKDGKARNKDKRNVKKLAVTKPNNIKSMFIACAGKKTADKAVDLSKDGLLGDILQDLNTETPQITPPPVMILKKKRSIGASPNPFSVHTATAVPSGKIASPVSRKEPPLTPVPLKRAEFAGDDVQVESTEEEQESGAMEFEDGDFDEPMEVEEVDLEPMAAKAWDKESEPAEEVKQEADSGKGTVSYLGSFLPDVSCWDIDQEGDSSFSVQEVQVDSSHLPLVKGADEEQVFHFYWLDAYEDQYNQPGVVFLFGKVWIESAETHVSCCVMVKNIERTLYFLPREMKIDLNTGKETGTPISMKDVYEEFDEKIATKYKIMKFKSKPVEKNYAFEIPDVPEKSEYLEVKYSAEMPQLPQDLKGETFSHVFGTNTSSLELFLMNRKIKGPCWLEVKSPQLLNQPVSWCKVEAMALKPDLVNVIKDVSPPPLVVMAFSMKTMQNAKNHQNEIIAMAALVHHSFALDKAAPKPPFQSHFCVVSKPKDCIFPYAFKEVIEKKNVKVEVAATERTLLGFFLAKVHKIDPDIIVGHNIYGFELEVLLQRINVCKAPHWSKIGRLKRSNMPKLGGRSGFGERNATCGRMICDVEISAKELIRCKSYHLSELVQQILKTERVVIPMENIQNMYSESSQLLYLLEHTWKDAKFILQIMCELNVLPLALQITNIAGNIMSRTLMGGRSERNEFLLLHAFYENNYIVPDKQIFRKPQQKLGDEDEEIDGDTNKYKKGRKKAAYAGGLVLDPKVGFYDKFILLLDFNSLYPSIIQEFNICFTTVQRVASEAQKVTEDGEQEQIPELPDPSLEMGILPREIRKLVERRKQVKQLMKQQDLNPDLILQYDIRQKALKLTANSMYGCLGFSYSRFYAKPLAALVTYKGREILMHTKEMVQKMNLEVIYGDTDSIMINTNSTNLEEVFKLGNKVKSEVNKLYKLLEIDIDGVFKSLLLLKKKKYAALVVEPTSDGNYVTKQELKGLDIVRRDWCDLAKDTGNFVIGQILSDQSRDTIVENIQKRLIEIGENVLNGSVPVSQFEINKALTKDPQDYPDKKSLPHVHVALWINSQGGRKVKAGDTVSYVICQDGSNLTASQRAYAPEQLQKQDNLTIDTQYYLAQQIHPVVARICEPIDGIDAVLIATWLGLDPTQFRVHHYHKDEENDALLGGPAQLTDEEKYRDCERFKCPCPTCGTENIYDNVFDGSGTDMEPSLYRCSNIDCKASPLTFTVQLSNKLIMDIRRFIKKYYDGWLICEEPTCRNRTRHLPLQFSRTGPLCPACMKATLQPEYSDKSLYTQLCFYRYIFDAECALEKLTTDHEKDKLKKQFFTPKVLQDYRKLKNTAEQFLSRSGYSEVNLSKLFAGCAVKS
GFP-tagged POLA1 p.Arg616Gly (P09884, form named): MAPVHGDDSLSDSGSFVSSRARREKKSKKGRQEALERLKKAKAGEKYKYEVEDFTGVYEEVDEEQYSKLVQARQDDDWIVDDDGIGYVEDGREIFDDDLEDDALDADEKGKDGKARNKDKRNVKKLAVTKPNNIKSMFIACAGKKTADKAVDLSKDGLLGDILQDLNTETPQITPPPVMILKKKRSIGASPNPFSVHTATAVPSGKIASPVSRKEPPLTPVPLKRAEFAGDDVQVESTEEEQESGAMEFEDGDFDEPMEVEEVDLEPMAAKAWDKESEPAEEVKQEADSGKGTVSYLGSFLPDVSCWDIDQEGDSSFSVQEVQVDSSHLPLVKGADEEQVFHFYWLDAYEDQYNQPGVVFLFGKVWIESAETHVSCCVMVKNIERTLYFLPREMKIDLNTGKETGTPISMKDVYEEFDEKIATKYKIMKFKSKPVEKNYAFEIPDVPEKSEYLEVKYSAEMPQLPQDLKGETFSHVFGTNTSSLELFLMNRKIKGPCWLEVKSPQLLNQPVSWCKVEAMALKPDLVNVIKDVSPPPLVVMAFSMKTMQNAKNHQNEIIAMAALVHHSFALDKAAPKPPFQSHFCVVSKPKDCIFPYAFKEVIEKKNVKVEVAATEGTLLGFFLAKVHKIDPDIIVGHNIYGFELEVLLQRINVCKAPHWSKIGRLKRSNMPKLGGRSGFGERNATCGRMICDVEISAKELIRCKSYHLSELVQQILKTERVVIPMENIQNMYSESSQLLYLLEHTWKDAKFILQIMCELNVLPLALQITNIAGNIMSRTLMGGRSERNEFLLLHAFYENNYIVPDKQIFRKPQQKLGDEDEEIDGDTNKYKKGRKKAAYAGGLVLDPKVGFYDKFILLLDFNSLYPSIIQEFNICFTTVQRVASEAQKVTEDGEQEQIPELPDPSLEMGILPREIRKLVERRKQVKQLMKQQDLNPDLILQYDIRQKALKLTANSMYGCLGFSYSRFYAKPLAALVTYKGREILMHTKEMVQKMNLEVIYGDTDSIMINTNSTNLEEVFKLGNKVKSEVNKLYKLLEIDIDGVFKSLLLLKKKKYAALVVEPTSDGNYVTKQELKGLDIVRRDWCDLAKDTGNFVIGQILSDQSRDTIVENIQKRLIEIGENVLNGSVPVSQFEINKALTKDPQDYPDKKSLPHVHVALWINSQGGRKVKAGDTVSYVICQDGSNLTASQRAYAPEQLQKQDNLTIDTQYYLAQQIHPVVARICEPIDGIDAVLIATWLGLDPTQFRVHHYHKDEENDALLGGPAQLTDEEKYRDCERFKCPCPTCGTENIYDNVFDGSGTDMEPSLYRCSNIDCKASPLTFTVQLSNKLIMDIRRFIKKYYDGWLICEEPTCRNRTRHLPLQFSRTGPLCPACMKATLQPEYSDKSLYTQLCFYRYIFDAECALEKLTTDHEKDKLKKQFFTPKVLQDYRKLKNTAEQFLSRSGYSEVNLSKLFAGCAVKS
GFP-tagged POLA1 p.Tyr1146Cys (P09884, form named): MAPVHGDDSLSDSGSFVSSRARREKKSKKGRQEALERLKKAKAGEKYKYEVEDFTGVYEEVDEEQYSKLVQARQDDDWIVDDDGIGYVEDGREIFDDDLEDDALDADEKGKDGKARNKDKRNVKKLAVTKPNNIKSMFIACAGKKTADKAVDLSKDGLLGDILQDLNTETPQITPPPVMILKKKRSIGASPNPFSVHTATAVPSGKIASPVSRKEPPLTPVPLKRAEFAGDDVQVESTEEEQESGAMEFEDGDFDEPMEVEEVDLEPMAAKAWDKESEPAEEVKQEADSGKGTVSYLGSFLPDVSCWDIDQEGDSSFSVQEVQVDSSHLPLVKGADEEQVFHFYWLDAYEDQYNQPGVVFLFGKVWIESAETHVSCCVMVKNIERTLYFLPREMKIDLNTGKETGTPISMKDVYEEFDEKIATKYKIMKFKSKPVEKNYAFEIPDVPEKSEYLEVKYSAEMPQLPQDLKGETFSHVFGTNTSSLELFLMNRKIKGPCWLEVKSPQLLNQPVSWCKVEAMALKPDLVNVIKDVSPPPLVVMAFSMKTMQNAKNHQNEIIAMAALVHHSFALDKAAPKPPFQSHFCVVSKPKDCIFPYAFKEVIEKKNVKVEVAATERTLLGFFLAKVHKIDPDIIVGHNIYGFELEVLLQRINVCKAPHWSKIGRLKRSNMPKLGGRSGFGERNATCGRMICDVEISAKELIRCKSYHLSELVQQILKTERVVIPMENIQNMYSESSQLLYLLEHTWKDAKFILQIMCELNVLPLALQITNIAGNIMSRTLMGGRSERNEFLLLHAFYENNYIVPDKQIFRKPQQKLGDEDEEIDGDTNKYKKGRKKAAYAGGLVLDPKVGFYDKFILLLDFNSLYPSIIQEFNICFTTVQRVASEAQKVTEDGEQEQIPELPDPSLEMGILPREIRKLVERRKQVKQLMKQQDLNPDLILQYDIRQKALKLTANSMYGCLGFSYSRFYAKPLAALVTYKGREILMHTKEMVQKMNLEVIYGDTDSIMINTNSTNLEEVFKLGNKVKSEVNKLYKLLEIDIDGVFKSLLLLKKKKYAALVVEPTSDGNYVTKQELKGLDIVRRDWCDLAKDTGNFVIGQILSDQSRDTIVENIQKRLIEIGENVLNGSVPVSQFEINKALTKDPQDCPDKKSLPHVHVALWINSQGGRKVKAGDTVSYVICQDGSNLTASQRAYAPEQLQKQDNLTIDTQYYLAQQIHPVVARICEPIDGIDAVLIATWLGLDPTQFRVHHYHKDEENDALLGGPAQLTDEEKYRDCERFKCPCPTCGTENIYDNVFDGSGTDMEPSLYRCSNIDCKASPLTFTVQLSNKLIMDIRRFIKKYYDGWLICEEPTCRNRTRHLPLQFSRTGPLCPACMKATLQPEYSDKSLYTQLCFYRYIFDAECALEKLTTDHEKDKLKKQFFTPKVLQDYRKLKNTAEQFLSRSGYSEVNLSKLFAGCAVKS
GFP-tagged POLA1 p.Leu537Ile (P09884, form named): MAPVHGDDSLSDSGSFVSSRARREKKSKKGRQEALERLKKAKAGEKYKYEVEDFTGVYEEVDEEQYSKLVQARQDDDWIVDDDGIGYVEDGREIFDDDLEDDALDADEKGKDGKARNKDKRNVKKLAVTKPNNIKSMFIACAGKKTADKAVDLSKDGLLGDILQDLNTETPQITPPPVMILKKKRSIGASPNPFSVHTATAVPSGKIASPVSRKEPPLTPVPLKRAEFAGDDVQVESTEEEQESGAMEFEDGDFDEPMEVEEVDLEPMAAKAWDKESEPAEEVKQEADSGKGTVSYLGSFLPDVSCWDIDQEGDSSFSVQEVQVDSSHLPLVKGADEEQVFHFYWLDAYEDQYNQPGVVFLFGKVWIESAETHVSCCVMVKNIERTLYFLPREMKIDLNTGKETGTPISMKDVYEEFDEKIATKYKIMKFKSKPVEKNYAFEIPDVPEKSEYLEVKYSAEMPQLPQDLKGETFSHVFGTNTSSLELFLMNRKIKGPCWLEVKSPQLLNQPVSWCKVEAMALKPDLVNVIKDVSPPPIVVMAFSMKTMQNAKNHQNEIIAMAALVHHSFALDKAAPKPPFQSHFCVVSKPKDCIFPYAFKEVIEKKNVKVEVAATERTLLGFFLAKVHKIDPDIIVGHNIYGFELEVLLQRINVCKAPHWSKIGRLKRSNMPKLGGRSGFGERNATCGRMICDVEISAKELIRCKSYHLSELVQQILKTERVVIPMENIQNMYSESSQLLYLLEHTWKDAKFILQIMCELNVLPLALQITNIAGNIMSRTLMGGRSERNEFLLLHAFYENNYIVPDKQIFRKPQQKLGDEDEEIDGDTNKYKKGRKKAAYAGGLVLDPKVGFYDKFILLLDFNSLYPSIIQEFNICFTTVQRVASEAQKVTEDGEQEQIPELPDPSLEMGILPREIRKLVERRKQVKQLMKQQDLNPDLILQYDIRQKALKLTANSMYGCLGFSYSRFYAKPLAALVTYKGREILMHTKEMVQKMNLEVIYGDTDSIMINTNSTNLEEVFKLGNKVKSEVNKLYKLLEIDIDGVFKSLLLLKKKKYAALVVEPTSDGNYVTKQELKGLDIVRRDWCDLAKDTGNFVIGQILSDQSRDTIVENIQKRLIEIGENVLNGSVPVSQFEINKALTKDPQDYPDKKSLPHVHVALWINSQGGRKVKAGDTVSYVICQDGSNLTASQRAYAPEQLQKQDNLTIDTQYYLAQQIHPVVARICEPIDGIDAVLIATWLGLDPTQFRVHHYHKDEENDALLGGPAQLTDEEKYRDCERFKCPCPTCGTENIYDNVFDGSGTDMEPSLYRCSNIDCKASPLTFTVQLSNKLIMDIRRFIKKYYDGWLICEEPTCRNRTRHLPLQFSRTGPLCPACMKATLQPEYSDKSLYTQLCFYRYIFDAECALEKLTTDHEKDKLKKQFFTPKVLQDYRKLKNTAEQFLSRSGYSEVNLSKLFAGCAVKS

| binding [1] | binding [2] | binding [3] | binding [4] | binding [5] | binding [6] | Molecule |
| --- | --- | --- | --- | --- | --- | --- |
| binds | – | – | – | – | – | 53BP1 (from UniProt Q12888 1-1972) |
| binds | – | – | – | – | – | RPA70 (from UniProt P27694 1-616) |
| – | binds weakly | binds weakly | binds weakly | binds | binds | MYC-CTC1 (protein, UniProt Q2NKJ3 1-1217) MAAGRAQVPSSEQAWLEDAQVFIQKTLCPAVKEPNVQLTPLVIDCVKTVWLSQGRNQGSTLPLSYSFVSVQDLKTHQRLPCCSHLSWSSSAYQAWAQEAGPNGNPLPREQLLLLGTLTDLSADLEQECRNGSLYVRDNTGVLSCELIDLDLSWLGHLFLFPRWSYLPPARWNSSGEGHLELWDAPVPVFPLTISPGPVTPIPVLYPESASCLLRLRNKLRGVQRNLAGSLVRLSALVKSKQKAYFILSLGRSHPAVTHVSIIVQVPAQLVWHRALRPGTAYVLTELRVSKIRGQRQHVWMTSQSSRLLLLKPECVQELELELEGPLLEADPKPLPMPSNSEDKKDPESLVRYSRLLSYSGAVTGVLNEPAGLYELDGQLGLCLAYQQFRGLRRVMRPGVCLQLQDVHLLQSVGGGTRRPVLAPCLRGAVLLQSFSRQKPGAHSSRQAYGASLYEQLVWERQLGLPLYLWATKALEELACKLCPHVLRHHQFLQHSSPGSPSLGLQLLAPTLDLLAPPGSPVRNAHNEILEEPHHCPLQKYTRLQTPSSFPTLATLKEEGQRKAWASFDPKALLPLPEASYLPSCQLNRRLAWSWLCLLPSAFCPAQVLLGVLVASSHKGCLQLRDQSGSLPCLLLAKHSQPLSDPRLIGCLVRAERFQLIVERDVRSSFPSWKELSMPGFIQKQQARVYVQFFLADALILPVPRPCLHSATPSTPQTDPTGPEGPHLGQSRLFLLCHKEALMKRNFCVPPGASPEVPKPALSFYVLGSWLGGTQRKEGTGWGLPEPQGNDDNDQKVHLIFFGSSVRWFEFLHPGQVYRLIAPGPATPMLFEKDGSSCISRRPLELAGCASCLTVQDNWTLELESSQDIQDVLDANKSLPESSLTDLLSDNFTDSLVSFSAEILSRTLCEPLVASLWMKLGNTGAMRRCVKLTVALETAECEFPPHLDVYIEDPHLPPSLGLLPGARVHFSQLEKRVSRSHNVYCCFRSSTYVQVLSFPPETTISIPLPHIYLAELLQGGQSPFQATASCHIVSVFSLQLFWVCAYCTSICRQGKCTRLGSTCPTQTAISQAIIRLLVEDGTAEAVVTCRNHHVAAALGLCPREWASLLDFVQVPGRVVLQFAGPGAQLESSARVDEPMTMFLWTLCTSPSVLRPIVLSFELERKPSKIVPLEPPRLQRFQCGELPFLTHVNPRLRLSCLSIRESEYSSSLGILASSC |
| – | binds weakly | binds weakly | binds weakly | binds | binds | TEN1-HA (protein, UniProt Q86WV5 1-123) MMLPKPGTYYLPWEVSAGQVPDGSTLRTFGRLCLYDMIQSRVTLMAQHGSDQHQVLVCTKLVEPFHAQVGSLYIVLGELQHQQDRGSVVKARVLTCVEGMNLPLLEQAIREQRLYKQERGGSQ |

Continued, molecule first:

| Molecule | binding [1] | binding [2] | binding [3] | binding [4] | binding [5] | binding [6] |
| --- | --- | --- | --- | --- | --- | --- |
| PRIM2A (protein, UniProt P49643 1-509) MEFSGRKWRKLRLAGDQRNASYPHCLQFYLQPPSENISLIEFENLAIDRVKLLKSVENLGVSYVKGTEQYQSKLESELRKLKFSYRENLEDEYEPRRRDHISHFILRLAYCQSEELRRWFIQQEMDLLRFRFSILPKDKIQDFLKDSQLQFEAISDEEKTLREQEIVASSPSLSGLKLGFESIYKIPFADALDLFRGRKVYLEDGFAYVPLKDIVAIILNEFRAKLSKALALTARSLPAVQSDERLQPLLNHLSHSYTGQDYSTQGNVGKISLDQIDLLSTKSFPPCMRQLHKALRENHHLRHGGRMQYGLFLKGIGLTLEQALQFWKQEFIKGKMDPDKFDKGYSYNIRHSFGKEGKRTDYTPFSCLKIILSNPPSQGDYHGCPFRHSDPELLKQKLQSYKISPGGISQILDLVKGTHYQVACQKYFEMIHNVDDCGFSLNHPNQFFCESQRILNGGKDIKKEPIQPETPQPKPSVQKTKDASSALASLNSSLEMDMEGLEDYFSEDS | – | binds weakly | binds weakly | binds weakly | binds | binds |
| FLAG-STN1 (protein, UniProt Q9H668 1-368) MQPGSSRCEEETPSLLWGLDPVFLAFAKLYIRDILDMKESRQVPGVFLYNGHPIKQVDVLGTVIGVRERDAFYSYGVDDSTGVINCICWKKLNTESVSAAPSAARELSLTSQLKKLQETIEQKTKIEIGDTIRVRGSIRTYREEREIHATTYYKVDDPVWNIQIARMLELPTIYRKVYDQPFHSSALEKEEALSNPGALDLPSLTSLLSEKAKEFLMENRVQSFYQQELEMVESLLSLANQPVIHSASSDQVNFKKDTTSKAIHSIFKNAIQLLQEKGLVFQKDDGFDNLYYVTREDKDLHRKIHRIIQQDCQKPNHMEKGCHFLHILACARLSIRPGLSEAVLQQVLELLEDQSDIVSTMEHYYTAF | – | binds weakly | binds weakly | binds weakly | binds | binds |
| PRIM1 (protein, UniProt P49642 1-420) METFDPTELPELLKLYYRRLFPYSQYYRWLNYGGVIKNYFQHREFSFTLKDDIYIRYQSFNNQSDLEKEMQKMNPYKIDIGAVYSHRPNQHNTVKLGAFQAQEKELVFDIDMTDYDDVRRCCSSADICPKCWTLMTMAIRIIDRALKEDFGFKHRLWVYSGRRGVHCWVCDESVRKLSSAVRSGIVEYLSLVKGGQDVKKKVHLSEKIHPFIRKSINIIKKYFEEYALVNQDILENKESWDKILALVPETIHDELQQSFQKSHNSLQRWEHLKKVASRYQNNIKNDKYGPWLEWEIMLQYCFPRLDINVSKGINHLLKSPFSVHPKTGRISVPIDLQKVDQFDPFTVPTISFICRELDAISTNEEEKEENEAESDVKHRTRDYKKTSLAPYVKVFEHFLENLDKSRKGELLKKSDLQKDF | – | binds weakly | binds weakly | binds weakly | binds | binds |
